Reference: the supplement of paper PMC10849652
Some of the results follow.

The chains behind the UniProt entries cited, without tags or fusion partners. Where a name states a change or a piece, a line headed by the entry shows the natural chain unless it says otherwise.
UniProt P49407: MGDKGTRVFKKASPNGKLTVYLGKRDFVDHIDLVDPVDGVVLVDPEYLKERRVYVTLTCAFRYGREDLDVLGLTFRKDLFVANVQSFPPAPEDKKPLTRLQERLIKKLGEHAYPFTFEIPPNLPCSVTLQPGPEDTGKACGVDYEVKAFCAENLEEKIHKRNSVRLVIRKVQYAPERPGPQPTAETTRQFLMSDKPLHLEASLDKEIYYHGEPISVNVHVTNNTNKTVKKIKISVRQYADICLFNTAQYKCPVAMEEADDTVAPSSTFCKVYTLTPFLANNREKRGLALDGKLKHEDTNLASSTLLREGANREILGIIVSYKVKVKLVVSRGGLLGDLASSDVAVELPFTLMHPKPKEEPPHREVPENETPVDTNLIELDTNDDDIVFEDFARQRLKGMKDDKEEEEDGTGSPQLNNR
UniProt P27540, whole entry, looked up: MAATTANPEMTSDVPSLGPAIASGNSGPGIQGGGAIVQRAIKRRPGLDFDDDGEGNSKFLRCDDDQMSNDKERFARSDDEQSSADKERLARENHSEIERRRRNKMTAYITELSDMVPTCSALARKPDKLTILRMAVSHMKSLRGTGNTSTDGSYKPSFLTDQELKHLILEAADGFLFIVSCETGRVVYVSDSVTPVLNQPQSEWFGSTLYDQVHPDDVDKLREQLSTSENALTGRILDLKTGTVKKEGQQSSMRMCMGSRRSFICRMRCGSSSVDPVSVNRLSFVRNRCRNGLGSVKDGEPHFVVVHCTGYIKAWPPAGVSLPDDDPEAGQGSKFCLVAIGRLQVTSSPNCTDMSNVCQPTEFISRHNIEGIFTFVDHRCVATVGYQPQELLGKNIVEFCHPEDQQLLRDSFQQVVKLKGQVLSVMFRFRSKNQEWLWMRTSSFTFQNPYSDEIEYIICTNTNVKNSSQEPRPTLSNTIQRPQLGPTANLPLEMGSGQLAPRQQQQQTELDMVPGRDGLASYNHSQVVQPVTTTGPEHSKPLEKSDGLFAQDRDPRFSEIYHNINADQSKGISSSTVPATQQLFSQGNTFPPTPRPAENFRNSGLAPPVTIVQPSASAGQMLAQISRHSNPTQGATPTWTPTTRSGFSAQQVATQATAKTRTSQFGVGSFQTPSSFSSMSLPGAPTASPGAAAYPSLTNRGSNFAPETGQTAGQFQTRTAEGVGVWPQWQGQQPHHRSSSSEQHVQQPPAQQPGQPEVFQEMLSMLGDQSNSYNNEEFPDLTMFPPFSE
UniProt O75143: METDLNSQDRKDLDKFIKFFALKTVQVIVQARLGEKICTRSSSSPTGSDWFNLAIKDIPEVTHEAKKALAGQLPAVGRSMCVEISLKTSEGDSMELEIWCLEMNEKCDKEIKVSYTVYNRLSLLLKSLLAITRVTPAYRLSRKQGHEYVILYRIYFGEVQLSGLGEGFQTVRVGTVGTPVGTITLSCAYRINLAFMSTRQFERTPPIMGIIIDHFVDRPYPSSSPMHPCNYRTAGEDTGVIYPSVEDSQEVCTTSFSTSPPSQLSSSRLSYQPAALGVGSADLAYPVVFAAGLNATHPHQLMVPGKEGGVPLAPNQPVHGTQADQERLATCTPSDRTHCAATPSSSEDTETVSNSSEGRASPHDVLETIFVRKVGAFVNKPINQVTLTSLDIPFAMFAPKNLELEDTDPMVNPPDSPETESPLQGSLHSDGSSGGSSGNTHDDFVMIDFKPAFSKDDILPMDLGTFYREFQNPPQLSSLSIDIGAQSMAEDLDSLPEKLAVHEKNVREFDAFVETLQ
UniProt L0R819, whole entry, looked up: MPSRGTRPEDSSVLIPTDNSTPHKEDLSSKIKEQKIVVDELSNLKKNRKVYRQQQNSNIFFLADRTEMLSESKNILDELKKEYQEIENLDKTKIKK
UniProt Q8NB49: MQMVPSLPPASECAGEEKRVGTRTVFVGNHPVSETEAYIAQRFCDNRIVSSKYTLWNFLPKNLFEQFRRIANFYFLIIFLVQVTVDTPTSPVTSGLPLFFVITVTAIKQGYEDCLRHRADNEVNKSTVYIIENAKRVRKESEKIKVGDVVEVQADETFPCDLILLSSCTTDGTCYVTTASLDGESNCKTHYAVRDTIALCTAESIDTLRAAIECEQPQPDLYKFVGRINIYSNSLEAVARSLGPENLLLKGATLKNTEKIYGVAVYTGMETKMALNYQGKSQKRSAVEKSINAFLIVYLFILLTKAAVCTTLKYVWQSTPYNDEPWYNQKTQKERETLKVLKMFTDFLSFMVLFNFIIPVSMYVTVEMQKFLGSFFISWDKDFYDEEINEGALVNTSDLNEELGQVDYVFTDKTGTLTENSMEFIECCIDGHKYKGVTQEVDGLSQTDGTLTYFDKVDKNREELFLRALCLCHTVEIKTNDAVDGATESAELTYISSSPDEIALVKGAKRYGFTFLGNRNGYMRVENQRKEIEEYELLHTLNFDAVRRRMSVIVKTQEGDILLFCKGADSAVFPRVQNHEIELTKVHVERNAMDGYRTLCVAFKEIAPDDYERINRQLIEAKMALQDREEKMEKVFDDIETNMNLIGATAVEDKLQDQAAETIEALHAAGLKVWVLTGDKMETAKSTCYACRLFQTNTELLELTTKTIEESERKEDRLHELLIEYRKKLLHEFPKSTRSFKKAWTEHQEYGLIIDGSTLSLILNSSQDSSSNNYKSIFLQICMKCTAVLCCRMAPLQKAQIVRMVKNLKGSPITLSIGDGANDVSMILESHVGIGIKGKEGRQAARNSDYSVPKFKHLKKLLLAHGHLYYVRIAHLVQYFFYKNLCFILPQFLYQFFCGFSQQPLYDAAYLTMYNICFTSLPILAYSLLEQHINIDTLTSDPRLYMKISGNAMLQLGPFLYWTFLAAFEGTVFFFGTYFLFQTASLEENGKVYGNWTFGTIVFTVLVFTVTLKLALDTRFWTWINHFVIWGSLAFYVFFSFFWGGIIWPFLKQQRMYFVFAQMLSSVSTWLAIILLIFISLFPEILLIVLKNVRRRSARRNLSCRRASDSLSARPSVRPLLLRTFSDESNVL
UniProt P25705: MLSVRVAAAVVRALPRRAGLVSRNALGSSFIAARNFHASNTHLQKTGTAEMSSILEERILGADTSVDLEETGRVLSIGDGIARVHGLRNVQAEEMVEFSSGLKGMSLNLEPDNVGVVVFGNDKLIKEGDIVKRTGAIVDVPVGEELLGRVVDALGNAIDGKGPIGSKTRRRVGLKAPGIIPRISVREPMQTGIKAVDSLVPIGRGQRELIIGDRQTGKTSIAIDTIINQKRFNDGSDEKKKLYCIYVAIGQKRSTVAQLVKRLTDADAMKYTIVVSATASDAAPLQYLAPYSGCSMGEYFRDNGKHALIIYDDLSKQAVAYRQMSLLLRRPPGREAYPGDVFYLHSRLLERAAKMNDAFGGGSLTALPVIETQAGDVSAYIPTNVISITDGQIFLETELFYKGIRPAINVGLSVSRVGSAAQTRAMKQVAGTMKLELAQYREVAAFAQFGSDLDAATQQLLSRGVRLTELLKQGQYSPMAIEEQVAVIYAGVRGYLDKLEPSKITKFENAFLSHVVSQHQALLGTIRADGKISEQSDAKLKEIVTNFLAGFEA
UniProt P61421, whole entry, looked up: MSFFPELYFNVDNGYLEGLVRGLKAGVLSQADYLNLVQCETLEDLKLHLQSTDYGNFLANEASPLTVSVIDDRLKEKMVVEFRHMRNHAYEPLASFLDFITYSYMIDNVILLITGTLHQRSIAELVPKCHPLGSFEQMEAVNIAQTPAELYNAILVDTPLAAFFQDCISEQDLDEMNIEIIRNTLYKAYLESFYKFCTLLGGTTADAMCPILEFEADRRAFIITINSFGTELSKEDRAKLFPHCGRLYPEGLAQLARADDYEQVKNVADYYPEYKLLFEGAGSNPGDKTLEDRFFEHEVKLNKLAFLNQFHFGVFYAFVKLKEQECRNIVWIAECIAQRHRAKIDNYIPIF
UniProt P21281, whole entry, looked up: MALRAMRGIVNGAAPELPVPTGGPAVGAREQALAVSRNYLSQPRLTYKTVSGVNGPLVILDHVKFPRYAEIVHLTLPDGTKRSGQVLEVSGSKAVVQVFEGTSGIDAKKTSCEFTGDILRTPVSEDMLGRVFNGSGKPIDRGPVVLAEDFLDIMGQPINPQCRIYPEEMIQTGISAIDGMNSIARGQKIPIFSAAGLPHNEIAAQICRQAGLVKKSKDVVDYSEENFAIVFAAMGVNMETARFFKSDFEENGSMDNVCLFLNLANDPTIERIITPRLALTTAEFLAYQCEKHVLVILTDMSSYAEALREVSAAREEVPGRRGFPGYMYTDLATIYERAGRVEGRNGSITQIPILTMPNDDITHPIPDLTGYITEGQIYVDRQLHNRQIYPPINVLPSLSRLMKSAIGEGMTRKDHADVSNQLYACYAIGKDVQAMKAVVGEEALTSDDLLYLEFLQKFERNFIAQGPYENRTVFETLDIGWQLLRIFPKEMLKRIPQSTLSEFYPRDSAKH
UniProt O75348, whole entry, looked up: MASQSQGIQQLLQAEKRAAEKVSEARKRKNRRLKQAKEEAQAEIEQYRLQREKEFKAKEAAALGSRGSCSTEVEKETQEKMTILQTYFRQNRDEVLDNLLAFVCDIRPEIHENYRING
UniProt Q5TC12: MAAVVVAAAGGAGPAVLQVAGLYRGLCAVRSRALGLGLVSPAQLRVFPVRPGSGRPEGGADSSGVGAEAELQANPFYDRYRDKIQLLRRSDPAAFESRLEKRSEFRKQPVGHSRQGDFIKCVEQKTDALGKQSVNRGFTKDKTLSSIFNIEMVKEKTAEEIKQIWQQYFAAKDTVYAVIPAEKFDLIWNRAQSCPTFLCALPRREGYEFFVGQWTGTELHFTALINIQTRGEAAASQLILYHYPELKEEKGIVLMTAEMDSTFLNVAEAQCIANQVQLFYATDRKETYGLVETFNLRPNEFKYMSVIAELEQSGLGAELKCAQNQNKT
UniProt P06576, whole entry, looked up: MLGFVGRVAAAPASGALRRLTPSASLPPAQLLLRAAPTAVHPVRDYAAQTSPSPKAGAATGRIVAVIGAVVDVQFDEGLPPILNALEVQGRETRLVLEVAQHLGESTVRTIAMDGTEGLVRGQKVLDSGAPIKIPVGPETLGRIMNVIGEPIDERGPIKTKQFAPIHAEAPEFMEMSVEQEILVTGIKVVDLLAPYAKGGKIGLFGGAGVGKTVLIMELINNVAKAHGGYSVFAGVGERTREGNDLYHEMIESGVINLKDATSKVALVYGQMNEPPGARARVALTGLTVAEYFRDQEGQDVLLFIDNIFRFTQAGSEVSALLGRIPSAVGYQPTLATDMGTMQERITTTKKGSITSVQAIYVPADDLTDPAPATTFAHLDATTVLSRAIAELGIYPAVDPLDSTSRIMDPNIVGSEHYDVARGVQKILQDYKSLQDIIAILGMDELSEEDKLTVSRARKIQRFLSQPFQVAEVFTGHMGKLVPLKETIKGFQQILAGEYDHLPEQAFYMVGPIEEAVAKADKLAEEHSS
UniProt Q8N9N2: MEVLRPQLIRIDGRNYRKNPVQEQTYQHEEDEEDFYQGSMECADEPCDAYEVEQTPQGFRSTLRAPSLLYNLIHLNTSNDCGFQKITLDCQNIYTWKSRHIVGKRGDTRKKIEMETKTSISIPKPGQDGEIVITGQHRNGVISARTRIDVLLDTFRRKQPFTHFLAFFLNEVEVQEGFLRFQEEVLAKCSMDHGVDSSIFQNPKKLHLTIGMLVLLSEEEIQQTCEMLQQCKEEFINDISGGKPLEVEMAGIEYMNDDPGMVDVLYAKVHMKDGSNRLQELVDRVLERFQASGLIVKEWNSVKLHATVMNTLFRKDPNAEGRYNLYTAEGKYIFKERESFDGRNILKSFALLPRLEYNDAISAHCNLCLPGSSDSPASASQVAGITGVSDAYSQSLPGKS
UniProt P15848: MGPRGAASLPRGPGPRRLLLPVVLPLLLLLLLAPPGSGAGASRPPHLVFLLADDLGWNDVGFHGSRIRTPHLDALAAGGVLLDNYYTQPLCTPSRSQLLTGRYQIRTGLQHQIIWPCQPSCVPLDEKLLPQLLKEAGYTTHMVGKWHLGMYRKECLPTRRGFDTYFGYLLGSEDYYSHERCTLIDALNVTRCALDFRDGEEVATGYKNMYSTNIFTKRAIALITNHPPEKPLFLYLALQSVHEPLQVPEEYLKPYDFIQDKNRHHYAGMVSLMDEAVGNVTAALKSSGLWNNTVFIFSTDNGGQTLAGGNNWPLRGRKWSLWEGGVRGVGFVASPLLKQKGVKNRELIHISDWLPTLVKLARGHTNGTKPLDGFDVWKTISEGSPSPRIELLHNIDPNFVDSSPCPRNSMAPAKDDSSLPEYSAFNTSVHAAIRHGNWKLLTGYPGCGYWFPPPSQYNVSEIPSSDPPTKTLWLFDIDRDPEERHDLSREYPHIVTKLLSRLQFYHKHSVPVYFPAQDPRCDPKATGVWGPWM

Assays:
Experiment in all cases: log2 fold change, soluble protein after heating vs DMSO (PISA); higher = thermal stabilisation; K562 cells, 10 uM, 30 min; active = over 0.2 and 3.5 SD of the protein, either way, in both replicates (recomputed)
[1] = compound: CS(=O)(=O)c1ccc(-c2cnc(N)c(C(=O)Nc3ccccc3)n2)cc1
In short: (§1)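 K562 cells (2×10^6 cells/mL) were treated with 10 μM compound for 30 min, and aliquots were heated for 3 min over 48°C-58°C. Pooled aliquots were extracted in PBS with 0.5% NP-40 at 4°C, and the supernatant after 21,000xg for 90 min was measured by TMTpro 16plex LC-MS/MS with channel sums equalised. Reported thermal stability, relative to control samples and from duplicates, is a log2 fold change.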

crizotinib = compound: C[C@@H](Oc1cc(-c2cnn(C3CCNCC3)c2)cnc1N)c1c(Cl)ccc(F)c1Cl [crizotinib]
In short: as §1

[2] = compound: C[C@@H]1COCCN1C2=NC(=NC(=C2)C3(CC3)S(=O)(=O)C)C4=C5C=CNC5=CC=C4
In short: as §1

[3] = compound: C[C@H](C1=CC=C(C=C1)C(=O)NC2=C3C=CNC3=NC=C2)N
In short: as §1

duvelisib = compound: C[C@H](Nc1ncnc2nc[nH]c12)c1cc2cccc(Cl)c2c(=O)n1-c1ccccc1 [duvelisib]
In short: as §1

gandotinib = compound: Cc1cc(Nc2cc(CN3CCOCC3)c3nc(C)c(Cc4ccc(Cl)cc4F)n3n2)n[nH]1 [gandotinib]
In short: as §1

tozasertib = compound: Cc1cc(Nc2cc(N3CCN(C)CC3)nc(Sc3ccc(NC(=O)C4CC4)cc3)n2)n[nH]1 [tozasertib]
In short: as §1

[4] = compound: Cc1cc(SCc2sc(-c3ccc(C(F)(F)F)cc3)nc2C)ccc1OCC(=O)O
In short: as §1

doramapimod = compound: Cc1ccc(-n2nc(C(C)(C)C)cc2NC(=O)Nc2ccc(OCCN3CCOCC3)c3ccccc23)cc1 [doramapimod]
In short: as §1

ispinesib = compound: Cc1ccc(C(=O)N(CCCN)[C@@H](c2nc3cc(Cl)ccc3c(=O)n2Cc2ccccc2)C(C)C)cc1 [ispinesib]
In short: as §1

bafetinib = compound: Cc1ccc(NC(=O)c2ccc(CN3CC[C@H](N(C)C)C3)c(C(F)(F)F)c2)cc1Nc1nccc(-c2cncnc2)n1 [bafetinib]
In short: as §1

[5] = compound: Cc1cccc(CC(=O)N2CCc3c2ccc(-c2cn(C)c4ncnc(N)c24)c3F)n1
In short: as §1

nilotinib = compound: Cc1cn(-c2cc(NC(=O)c3ccc(C)c(Nc4nccc(-c5cccnc5)n4)c3)cc(C(F)(F)F)c2)cn1 [nilotinib]
In short: as §1

[6] = compound: Cc1nc(Nc2n[nH]c3c2CN(C(=O)N[C@H](CN(C)C)c2ccccc2)C3(C)C)c2sccc2n1
In short: as §1

dasatinib = compound: Cc1nc(Nc2ncc(C(=O)Nc3c(C)cccc3Cl)s2)cc(N2CCN(CCO)CC2)n1 [dasatinib]
In short: as §1

[7] = compound: Cc1ncc(-c2ccnc(Nc3ccc(S(C)(=O)=O)cc3)n2)n1C(C)C
In short: as §1

[8] = compound: Cn1cc(-c2ccc3c(c2)CCN3C(=O)Cc2cccc(C(F)(F)F)c2)c2c(N)ncnc21
In short: as §1

[9] = compound: Cn1cc(-c2ccc3nnc(C(F)(F)c4ccc5ncccc5c4)n3n2)cn1
In short: as §1

tipifarnib = compound: Cn1cncc1[C@@](N)(c1ccc(Cl)cc1)c1ccc2c(c1)c(-c1cccc(Cl)c1)cc(=O)n2C [tipifarnib]
In short: as §1

mubritinib = compound: FC(F)(F)c1ccc(/C=C/c2nc(COc3ccc(CCCCn4ccnn4)cc3)co2)cc1 [mubritinib]
In short: as §1

Measured: log2 fold change

ARRB1 (UniProt P49407)
inactive: [1] 0 | crizotinib 0.034 | [2] 0.004 | [3] -0.218 | duvelisib 0.023 | gandotinib -0.005 | tozasertib -0.007 | [4] -0.017 | doramapimod -0.001 | ispinesib 0.002 | bafetinib -0.051 | [5] -0.044 | nilotinib -0.012 | [6] -0.041 | dasatinib 0 | [7] -0.024 | [8] 0.035 | [9] 0.053 | tipifarnib -0.016 | mubritinib 0.029

ARNT (UniProt P27540)
inactive: [1] 0.005 | crizotinib -0.016 | [2] 0.054 | [3] 0.017 | duvelisib -0.046 | gandotinib -0.053 | tozasertib 0.052 | [4] 0.029 | doramapimod 0.048 | ispinesib 0.049 | bafetinib 0.043 | [5] -0.008 | nilotinib -0.031 | [6] -0.057 | dasatinib -0.14 | [7] 0.029 | [8] 0.02 | [9] -0.134 | tipifarnib -0.008 | mubritinib 0.076

ATG13 isoform 5 (UniProt O75143)
inactive: [1] 0.037 | crizotinib 0.007 | [2] -0.015 | [3] 0.025 | duvelisib 0.054 | gandotinib 0.219 | tozasertib 0.071 | [4] 0.02 | doramapimod 0.051 | ispinesib 0.008 | bafetinib -0.114 | [5] -0.007 | nilotinib -0.028 | [6] 0.018 | dasatinib 0.01 | [7] -0.004 | [8] -0.059 | [9] 0.005 | tipifarnib 0.044 | mubritinib 0.071

ASDURF (UniProt L0R819)
inactive: [1] -0.004 | crizotinib 0.044 | [2] -0.005 | [3] -0.02 | duvelisib 0.01 | gandotinib 0.045 | tozasertib -0.007 | [4] -0.033 | doramapimod 0.006 | ispinesib 0.006 | bafetinib -0.021 | [5] -0.038 | nilotinib 0.009 | [6] 0.008 | dasatinib 0.06 | [7] -0.009 | [8] -0.016 | [9] -0.091 | tipifarnib 0.004 | mubritinib -0.005

ATP11C (UniProt Q8NB49)
inactive: [1] 0.029 | crizotinib -0.03 | [2] 0.026 | [3] -0.066 | duvelisib 0.014 | gandotinib -0.006 | tozasertib 0.005 | [4] -0.093 | doramapimod -0.022 | ispinesib -0.046 | bafetinib 0.039 | [5] 0.049 | nilotinib 0.032 | [6] 0.001 | dasatinib 0.041 | [7] 0.003 | [8] 0.042 | [9] 0.002 | tipifarnib -0.024 | mubritinib 0.036

ATP5F1A (UniProt P25705)
inactive: [1] -0.01 | crizotinib 0.02 | [2] -0.02 | [3] -0.041 | duvelisib -0.011 | gandotinib -0.024 | tozasertib -0.01 | [4] -0.034 | doramapimod 0.004 | ispinesib -0.02 | bafetinib -0.007 | [5] -0.039 | nilotinib -0.001 | [6] 0.006 | dasatinib 0.058 | [7] -0.036 | [8] 0.018 | [9] -0.019 | tipifarnib 0.06 | mubritinib 0.019

ATP6V0D1 (UniProt P61421)
inactive: [1] 0.009 | crizotinib -0.131 | [2] 0.006 | [3] 0.091 | duvelisib -0.039 | gandotinib 0.203 | tozasertib 0.061 | [4] 0.083 | doramapimod 0.211 | ispinesib -0.22 | bafetinib -0.065 | [5] 0.129 | nilotinib 0.014 | [6] -0.03 | dasatinib -0.009 | [7] -0.076 | [8] -0.033 | [9] 0.136 | tipifarnib 0.016 | mubritinib -0.002

ATP6V1B2 (UniProt P21281)
inactive: [1] -0.026 | crizotinib -0.153 | [2] -0.05 | [3] 0.03 | duvelisib -0.015 | gandotinib 0.109 | tozasertib 0.039 | [4] -0.024 | doramapimod 0.012 | ispinesib -0.119 | bafetinib -0.139 | [5] 0.025 | nilotinib 0.007 | [6] -0.023 | dasatinib 0.043 | [7] 0.01 | [8] -0.015 | [9] -0.022 | tipifarnib 0.052 | mubritinib 0.087

ATP6V1G1 (UniProt O75348)
inactive: [1] -0.066 | crizotinib -0.069 | [2] -0.037 | [3] 0.022 | duvelisib 0.016 | gandotinib 0.037 | tozasertib 0.024 | [4] -0.012 | doramapimod 0.031 | ispinesib -0.119 | bafetinib -0.113 | [5] -0.03 | nilotinib -0.001 | [6] -0.009 | dasatinib 0.063 | [7] 0.029 | [8] 0.015 | [9] -0.013 | tipifarnib 0.025 | mubritinib 0.056

ARPC3 (UniProt O15145)
inactive: [1] 0.02 | crizotinib 0.051 | [2] 0.057 | [3] -0.146 | duvelisib 0.014 | gandotinib 0.039 | tozasertib 0.076 | [4] 0.009 | doramapimod -0.023 | ispinesib 0.151 | bafetinib -0.056 | [5] -0.041 | nilotinib 0.079 | [6] -0.009 | dasatinib -0.01 | [7] 0.009 | [8] 0.014 | [9] -0.009 | tipifarnib -0.055 | mubritinib 0.034

ATPAF1 (UniProt Q5TC12)
inactive: [1] -0.042 | crizotinib -0.003 | [2] -0.026 | [3] -0.032 | duvelisib -0.026 | gandotinib -0.009 | tozasertib -0.082 | [4] -0.033 | doramapimod -0.05 | ispinesib 0 | bafetinib -0.041 | [5] 0.023 | nilotinib 0.024 | [6] 0.053 | dasatinib -0.017 | [7] -0.019 | [8] 0.038 | [9] 0.024 | tipifarnib -0.153 | mubritinib -0.002

ATP5F1B (UniProt P06576)
inactive: [1] 0.02 | crizotinib 0.059 | [2] 0.002 | [3] -0.023 | duvelisib 0.004 | gandotinib 0.004 | tozasertib -0.014 | [4] -0.022 | doramapimod 0.012 | ispinesib 0.003 | bafetinib -0.03 | [5] -0.044 | nilotinib 0.003 | [6] 0.013 | dasatinib 0.014 | [7] -0.029 | [8] 0.004 | [9] 0.022 | tipifarnib 0.064 | mubritinib 0.029

ASCC1 isoform 2 (UniProt Q8N9N2)
inactive: [1] 0.113 | crizotinib -0.155 | [2] -0.042 | [3] 0.056 | duvelisib 0.011 | gandotinib -0.108 | tozasertib -0.057 | [4] 0.066 | doramapimod 0.049 | ispinesib -0.103 | bafetinib -0.018 | [5] 0.002 | nilotinib -0.052 | [6] -0.041 | dasatinib -0.077 | [7] -0.048 | [8] -0.041 | [9] -0.034 | tipifarnib -0.053 | mubritinib 0.03

ATP6V1A (UniProt P38606)
inactive: [1] -0.021 | crizotinib -0.153 | [2] -0.003 | [3] 0.023 | duvelisib 0.008 | gandotinib 0.069 | tozasertib 0.022 | [4] -0.002 | doramapimod 0.016 | ispinesib -0.123 | bafetinib -0.091 | [5] 0.015 | nilotinib -0.003 | [6] -0.013 | dasatinib 0.041 | [7] 0.025 | [8] -0.007 | [9] -0.033 | tipifarnib 0.027 | mubritinib 0.08

Retrieved one by one from above (two):
ASCC1 isoform 2 (UniProt Q8N9N2)
inactive: [1] 0.113 | crizotinib -0.155 | [2] -0.042 | [3] 0.056 | duvelisib 0.011 | gandotinib -0.108 | tozasertib -0.057 | [4] 0.066 | doramapimod 0.049 | ispinesib -0.103 | bafetinib -0.018 | [5] 0.002 | nilotinib -0.052 | [6] -0.041 | dasatinib -0.077 | [7] -0.048 | [8] -0.041 | [9] -0.034 | tipifarnib -0.053 | mubritinib 0.03

ATP6V1A (UniProt P38606)
inactive: [1] -0.021 | crizotinib -0.153 | [2] -0.003 | [3] 0.023 | duvelisib 0.008 | gandotinib 0.069 | tozasertib 0.022 | [4] -0.002 | doramapimod 0.016 | ispinesib -0.123 | bafetinib -0.091 | [5] 0.015 | nilotinib -0.003 | [6] -0.013 | dasatinib 0.041 | [7] 0.025 | [8] -0.007 | [9] -0.033 | tipifarnib 0.027 | mubritinib 0.08

(continued)

ARSB (UniProt P15848)
inactive: [1] -0.02 | crizotinib -0.052 | [2] 0.042 | [3] 0.139 | duvelisib 0.176 | gandotinib -0.037 | tozasertib 0.064 | [4] 0.033 | doramapimod 0.032 | ispinesib -0.032 | bafetinib -0.144 | [5] 0.01 | nilotinib 0.009 | [6] -0.01 | dasatinib -0.017 | [7] 0.017 | [8] 0.051 | [9] 0.02 | tipifarnib 0.027 | mubritinib 0.071
